According to paper PMC7819943, “Rice protein-binding microarrays: a tool to detect cis-acting elements near promoter regions in rice”:
The list shows a part of the results.

What follows are sequences tested against T1, OsSMF1 (Oryza sativa, UniProt Q6ZLB0 1-436) (assay: protein-binding microarray (RPBM); PBS, 2% BSA, 51.3 ng/ul salmon testes DNA, 50 uM zinc acetate, 200 nM TF, 25 C, 1 h; high values mean tight binding). Details: protein: recombinant; tags: N-terminal polyhistidine and DsRed monomer fusion (pET32a); chain copies: 2; label: CyDye5-dUTP incorporated in the synthesized complementary strand; 3' TTTTT single-stranded linker to array surface; dsDNA, one strand shown.
T1 sequence: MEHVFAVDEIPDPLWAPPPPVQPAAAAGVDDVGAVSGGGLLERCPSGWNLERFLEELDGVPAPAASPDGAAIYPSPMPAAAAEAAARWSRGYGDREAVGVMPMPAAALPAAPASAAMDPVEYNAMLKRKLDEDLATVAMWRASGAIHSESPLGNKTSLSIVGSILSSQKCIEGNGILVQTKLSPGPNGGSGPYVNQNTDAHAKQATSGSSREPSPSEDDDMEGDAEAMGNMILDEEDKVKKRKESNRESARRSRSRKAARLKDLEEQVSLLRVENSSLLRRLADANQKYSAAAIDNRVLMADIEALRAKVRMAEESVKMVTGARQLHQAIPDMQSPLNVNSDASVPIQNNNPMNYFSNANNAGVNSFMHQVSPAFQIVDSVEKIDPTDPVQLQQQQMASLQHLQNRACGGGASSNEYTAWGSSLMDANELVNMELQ
Outline: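 Using Ni–NTA, transcription factors fused N-terminally to polyhistidine and DsRed were purified after expression in E. coli BL21-CodonPlus. These were incubated at 200 nM with a blocked, double-stranded custom Agilent array for 1 h at 25 °C in a buffer containing 50 µM zinc acetate, and the array was washed. The binding signal is per-feature fluorescence intensity (arbitrary units) on an Axon 4000B scanner.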

Sequence	binding signal
TCTACCTTCAAAAGGTGGGTATGTACGTGTCCTGGTCACTCGGAGTCACCTAGTGCAG	4320 fluorescence intensity (a.u.)
ACTGAGAGTCTGAAAACCAACCAGCAAATCAAGCTTTGTGCGGAGTCACCTAGTGCAG	3680 fluorescence intensity (a.u.)
AATCTCAGCCGCTTGAAGAGGGAGAGAGAGAGATGGGAAGCGGAGTCACCTAGTGCAG	31000 fluorescence intensity (a.u.)
TAGCCTGTTACATCATCAGAACATGCATGCAAGGCACTTCCGGAGTCACCTAGTGCAG	3480 fluorescence intensity (a.u.)
TGAACAAGTTTTACCACTTGCTTTCCTGTGTTTAATGCCACGGAGTCACCTAGTGCAG	3300 fluorescence intensity (a.u.)
AACACCTCCCGGTCATGCACCCTGCGTGGACTAACCACCCCGGAGTCACCTAGTGCAG	4250 fluorescence intensity (a.u.)
ACAAGCTAACACACACATGAACACAAAATCTGACGGAACCCGGAGTCACCTAGTGCAG	3500 fluorescence intensity (a.u.)
TGAATACGTCCAGATTCATTAGATGAGGTAATATCTCATTCGGAGTCACCTAGTGCAG	3290 fluorescence intensity (a.u.)
TTCTGATATAATCTGACTTGTACAAAGCAAATCGCCAATTCGGAGTCACCTAGTGCAG	4240 fluorescence intensity (a.u.)
CATGGGTCGGGCCTTTTGGCCAACTATAGCGCCAGCTCACCGGAGTCACCTAGTGCAG	4960 fluorescence intensity (a.u.)
TCTTCTTGTAGAGGGCTATGAATGATCCTGACTTTTATCTCGGAGTCACCTAGTGCAG	3360 fluorescence intensity (a.u.)
TTCTCCTCGGCCTCCATGTGCACGTCCATGTGGCGCATGGCGGAGTCACCTAGTGCAG	4220 fluorescence intensity (a.u.)
AGGCACATAAACTTGTTTGATTGTTGTGCAAAAGACTTGACGGAGTCACCTAGTGCAG	37000 fluorescence intensity (a.u.)
TCCATGCCACCGTCGCCGTCGTTTGCGCGAAAGCCCCTGCCGGAGTCACCTAGTGCAG	3180 fluorescence intensity (a.u.)
GCCGCCACGACACCCTTGTCCTCCTGCTCCGTAGCAGCCTCGGAGTCACCTAGTGCAG	5410 fluorescence intensity (a.u.)
CGTTGTGAGTCAAACTTTTATCAGATCATGTGTTACACCACGGAGTCACCTAGTGCAG	7280 fluorescence intensity (a.u.)
GTTCCATTCCAATCCCATGAAAGCAACAGCGCTGCCTATCCGGAGTCACCTAGTGCAG	35800 fluorescence intensity (a.u.)
TTTATTATGACTTGATTCGTCATCAAATGTTCTTTAAGCACGGAGTCACCTAGTGCAG	5230 fluorescence intensity (a.u.)
CCAGCAATCCTTGGTGACGTTGTGGCCGGCCACCTCCTCGCGGAGTCACCTAGTGCAG	6280 fluorescence intensity (a.u.)
TCTGGAACAAACTGTTGCCACTTGCAGGCCTGCACGTCATCGGAGTCACCTAGTGCAG	7960 fluorescence intensity (a.u.)
CCATGCACGCACGCCGCGACGCCACACGTGAAAGCTCCCACGGAGTCACCTAGTGCAG	28000 fluorescence intensity (a.u.)

Sequence	binding signal
CGTTGTTTGTTACTAATGAGTCAAGTTGGAGATAGCTTGGCGGAGTCACCTAGTGCAG	24500 fluorescence intensity (a.u.)
GACTCGAGTCGAGAGAGACTCGTCGTCATTAGCCATCACTCGGAGTCACCTAGTGCAG	3540 fluorescence intensity (a.u.)
CCATTTTGTTCCACCGCGTCGGCGGAAAGAGTGCACTGCCCGGAGTCACCTAGTGCAG	3500 fluorescence intensity (a.u.)
TCAAGGACCTCGTCATCCTCTCAGGTAACACACTTTCCCTCGGAGTCACCTAGTGCAG	3780 fluorescence intensity (a.u.)
GTTTCGAACGAAGCCCGATTGTAGATGACGTATCGACGCCCGGAGTCACCTAGTGCAG	6810 fluorescence intensity (a.u.)
TTCATAAGCTGCTTACGTGTTATTTGCACAGTTTAAATTTCGGAGTCACCTAGTGCAG	15800 fluorescence intensity (a.u.)
TACTCCCTCCTTCCCTAAATGTTTGACACCGTGGACTTTTCGGAGTCACCTAGTGCAG	3600 fluorescence intensity (a.u.)
GCCTCCATCCCCTTCTTCCGTGTCGTTGCCACCGCATCGCCGGAGTCACCTAGTGCAG	6220 fluorescence intensity (a.u.)
GCTTGAATTCCTGGTCGGTCACCCATCACTTGTCCTCACTCGGAGTCACCTAGTGCAG	16400 fluorescence intensity (a.u.)
ACAAATTTTAAAGGCGACAGGAGAATAAATCCCCAAAGCGCGGAGTCACCTAGTGCAG	28900 fluorescence intensity (a.u.)
GTTTGCAAGTTTGCTCTGTCAACGTCCACCAATACGGCAACGGAGTCACCTAGTGCAG	3890 fluorescence intensity (a.u.)
GTGAGATTAGACATTGCCACGTGGCTGGCGGTCTCGCAGCCGGAGTCACCTAGTGCAG	22200 fluorescence intensity (a.u.)
TTGCAGTCCACCAATATTGGAGCGACGTAGGTTGAGTCCACGGAGTCACCTAGTGCAG	4030 fluorescence intensity (a.u.)
ATGGCCACGTCAGCTCCATTCCCGTCGCGTCACTGCCTCTCGGAGTCACCTAGTGCAG	18700 fluorescence intensity (a.u.)
TCGCGGTGGTGGTGAAGCTGGTGTGGAGGCCCCGCGCCATCGGAGTCACCTAGTGCAG	3270 fluorescence intensity (a.u.)
AAAGTTACAGCGTAAGTTTTATAAATTACACTGTAACTTACGGAGTCACCTAGTGCAG	8930 fluorescence intensity (a.u.)
CGTGCAGTGGCCGGCGCGCAGCCGACGTCTCCATCAGTGCCGGAGTCACCTAGTGCAG	4020 fluorescence intensity (a.u.)
CTGCACTGCGTTACATGCGGCGTGACACGCTCAGCCAAACCGGAGTCACCTAGTGCAG	4640 fluorescence intensity (a.u.)
GGAGAAGGGTAGAACAGGATATACAGTTATACACCCGCTACGGAGTCACCTAGTGCAG	4120 fluorescence intensity (a.u.)
TACCATTGGCCTGCTCCTGTCCTGAGTCAGCACTAGAGAGCGGAGTCACCTAGTGCAG	16100 fluorescence intensity (a.u.)
AGGCCGGAGTGAGGGAGCAAAGGCTGACGAAACGCACATCCGGAGTCACCTAGTGCAG	3260 fluorescence intensity (a.u.)

Some values from the list.
For binding signal, TCGCGGTGGTGGTGAAGCTGGTGTGGAGGCCCCGCGCCATCGGAGTCACCTAGTGCAG is listed with 3270 fluorescence intensity (a.u.)
For binding signal, AGGCACATAAACTTGTTTGATTGTTGTGCAAAAGACTTGACGGAGTCACCTAGTGCAG is listed with 37000 fluorescence intensity (a.u.)

Following part:

Sequence	binding signal
GCCGCCGCGGGGCACCCCTACGCGTGGCCCGCGCAGGTAGCGGAGTCACCTAGTGCAG	3180 fluorescence intensity (a.u.)
ACAAGATTTTCTTCAGTCTGAAACACTACAAAATGGGTCACGGAGTCACCTAGTGCAG	5990 fluorescence intensity (a.u.)
ACCGAACAGCTCAGTGCCCGCCCCGCCCTGGACCTTGACGCGGAGTCACCTAGTGCAG	3320 fluorescence intensity (a.u.)
ACCGAGGATGAGAAGAGGGGAGAGAGAAGGATGACGTGGCCGGAGTCACCTAGTGCAG	22100 fluorescence intensity (a.u.)
TCATACTTTCTTAATAGCCGTGTCAACTCTAAATCTTCTTCGGAGTCACCTAGTGCAG	3320 fluorescence intensity (a.u.)
ACAAGTGAATCCGATCTCACATGCCAGCAGTAGCTACTACCGGAGTCACCTAGTGCAG	13700 fluorescence intensity (a.u.)
GAGGCCACGTCTGGGGCAGGCGGGCCTTGCCGGAACCGGGCGGAGTCACCTAGTGCAG	4620 fluorescence intensity (a.u.)
GGCTGTTGAACAATACACATGACCCTCCTCCCTTACTAATCGGAGTCACCTAGTGCAG	30200 fluorescence intensity (a.u.)
GCGCGGCGATGACACGTGTCGCATGACTCACCAGCGGTGTCGGAGTCACCTAGTGCAG	24000 fluorescence intensity (a.u.)
GAAGCCATGGCGGCGAGATCGCCTCACGTGTCGCCACCGCCGGAGTCACCTAGTGCAG	6500 fluorescence intensity (a.u.)
CTCCTCCGTCATCTCCATGTACTGGTGCGCGTCCGCGATCCGGAGTCACCTAGTGCAG	4410 fluorescence intensity (a.u.)
TACAACTACGGCCCTCCGCAGCCACAGGCGCCGCCGCCGCCGGAGTCACCTAGTGCAG	3340 fluorescence intensity (a.u.)
ACTGACAAGCAGTGAATTTTACCCCGTAACTTACGCATATCGGAGTCACCTAGTGCAG	3150 fluorescence intensity (a.u.)
ATTGACCACTTTATTGTATGTCGTCAACAGAAGAAGTGCTCGGAGTCACCTAGTGCAG	3510 fluorescence intensity (a.u.)
ACTGCCGGTTCAACTGCTCCACGGCTCCACTCCACGCATCCGGAGTCACCTAGTGCAG	43300 fluorescence intensity (a.u.)
CCGCAGCCACGCAAGCATGCAAACCAGCACAACACAACACCGGAGTCACCTAGTGCAG	4870 fluorescence intensity (a.u.)
AGAGAACGGTGAACCGGGAAAAGCCCTGTGAATTTTCAAACGGAGTCACCTAGTGCAG	19700 fluorescence intensity (a.u.)
CAAAGATGGAGAATCGTTGCCTCGATCCCTTCGAACACCCCGGAGTCACCTAGTGCAG	37400 fluorescence intensity (a.u.)
GCCCGCCAATGCGGTCCCGACACGTGTCCCCTCCCCGCTCCGGAGTCACCTAGTGCAG	21600 fluorescence intensity (a.u.)
TTAAGATTAAGATTAAGATAGATAATAATACGACATGTTCCGGAGTCACCTAGTGCAG	22100 fluorescence intensity (a.u.)
CCCCTGATCGGACGGTCCGGGTTCTTCCAGTGACGTGGATCGGAGTCACCTAGTGCAG	15000 fluorescence intensity (a.u.)

In another format: results already given.
AGAGAACGGTGAACCGGGAAAAGCCCTGTGAATTTTCAAACGGAGTCACCTAGTGCAG
  binding signal = 19700 fluorescence intensity (a.u.)
CAAAGATGGAGAATCGTTGCCTCGATCCCTTCGAACACCCCGGAGTCACCTAGTGCAG
  binding signal = 37400 fluorescence intensity (a.u.)
GCCCGCCAATGCGGTCCCGACACGTGTCCCCTCCCCGCTCCGGAGTCACCTAGTGCAG
  binding signal = 21600 fluorescence intensity (a.u.)

Continuation:

Sequence	binding signal
AATCACCAACCTTGTCATCTATGTAGGCGGTCCAAAACCGCGGAGTCACCTAGTGCAG	4100 fluorescence intensity (a.u.)
TTTTATGACAATTAGTATAAGATGGGGTGGCTTAGTGACGCGGAGTCACCTAGTGCAG	3340 fluorescence intensity (a.u.)
CTGTACTGGAATGTGAAATACGTCATGACTCATGAAGTTGCGGAGTCACCTAGTGCAG	8950 fluorescence intensity (a.u.)
TGGTGCAGGGGACAAAGAAGCTGACACACCAGGTTGATAACGGAGTCACCTAGTGCAG	5170 fluorescence intensity (a.u.)
CCTTCTATCTATCGATCCAATCCAACGCTGCAGAGACCCTCGGAGTCACCTAGTGCAG	3170 fluorescence intensity (a.u.)
CCTCCCTCACGTTGGATCCCGTGGAGTTGAGATGATTCGTCGGAGTCACCTAGTGCAG	3390 fluorescence intensity (a.u.)
AATGGGATATGGGAGGTGGGATTGGGAAAGGGGAATAGATCGGAGTCACCTAGTGCAG	3330 fluorescence intensity (a.u.)
GAGTGGGAATTCTGATCAAAACCTGGTGACACGTTTGGCTCGGAGTCACCTAGTGCAG	6280 fluorescence intensity (a.u.)
TGGTACAAGGATTTGTCCTGTCAACATGGCAATCCTCTGCCGGAGTCACCTAGTGCAG	3360 fluorescence intensity (a.u.)
ACTTGTGTTTTGTCAGTGACACTGGCTGGCCCAGCATGCACGGAGTCACCTAGTGCAG	3640 fluorescence intensity (a.u.)
GACTCAGCGGATTGGAACAAGTCAAAGTGCAACGTCAGCGCGGAGTCACCTAGTGCAG	10000 fluorescence intensity (a.u.)
AGTTGATAGGAGTAGCTTGAAGAAGCAGAGACAGCTAGATCGGAGTCACCTAGTGCAG	37600 fluorescence intensity (a.u.)
GACTTGATTTACAGATTTATTGACAGAGTTTTGCTAAGCTCGGAGTCACCTAGTGCAG	4370 fluorescence intensity (a.u.)
ATAGGTGATGCAAAATAACCGCTCAACTAGGAGCAAACATCGGAGTCACCTAGTGCAG	4400 fluorescence intensity (a.u.)
AATAGTTCGTGTGACGTTAATGGTCCCGTTCTTTGCTTCACGGAGTCACCTAGTGCAG	3890 fluorescence intensity (a.u.)
AACGTAGAATCTTTTGCTTGGGGCCCTAAGAGTGACACTACGGAGTCACCTAGTGCAG	12400 fluorescence intensity (a.u.)
ATAGACTAAGGTTTCACTGACATGTGCGGCCCACATGGGTCGGAGTCACCTAGTGCAG	27100 fluorescence intensity (a.u.)
GATTGACTTTATGTGGGTCCCACAAATCAATTTTCACGCTCGGAGTCACCTAGTGCAG	3520 fluorescence intensity (a.u.)
CTCCACTCACCGTCACCGACATGTGGACCACCCAACGTTTCGGAGTCACCTAGTGCAG	3420 fluorescence intensity (a.u.)
GTCTTACTGTTTCTGATGAAACCTGTGTTAGTATCCAGCTCGGAGTCACCTAGTGCAG	25800 fluorescence intensity (a.u.)
GGAGAACCCAAAGGATCCTGATGAAGTACGTGGCATATTGCGGAGTCACCTAGTGCAG	5760 fluorescence intensity (a.u.)
